Earlier results as cited in patent US20230414557A1, “NEW THERAPY CONCEPT FOR THE TREATMENT OF CORONA INFECTIONS, ESPECIALLY COVID-19 INFECTIONS” (priority 2020, published 2023).
Like-named read-outs stand apart in the source and are kept apart here. For at least one compound, name, drawing or mass did not settle the structure.

Tested on: COVID-19
Conditions: cited from earlier work

SMILES	disease duration (hospitalized patients, preliminary published randomized study)	mortality (COVID-19 patients on oxygen (from 26% without)) [%]	mortality (COVID-19 patients on ventilators (from 41% without)) [%]
CCC(CC)COC(=O)[C@H](C)N[P@](=O)(OC[C@H]1O[C@@](C#N)(c2ccc3c(N)ncnn23)[C@H](O)[C@@H]1O)Oc1ccccc1 [Remdesivir]	reduction of disease duration	–	–
C[C@@H]1C[C@H]2[C@@H]3CCC4=CC(=O)C=C[C@]4(C)[C@@]3(F)[C@@H](O)C[C@]2(C)[C@@]1(O)C(=O)CO [dexamethasone, 9-fluoro-16alpha-methylprednisolone]	–	23	29
